This test relates to Mycobacterium tuberculosis. Briefly: Antimycobacterial activity against ethambutol/isoniazid/rifampicin-resistant Mycobacterium tuberculosis incubated for 7 days by rapid direct susceptibility test. It counts as functional. As to conditions: 168 h.

Drawing on ChEMBL document CHEMBL4261608, “Design, synthesis and anti-mycobacterial activity evaluation of benzofuran-isatin hybrids” (Eur J Med Chem, 2018), this text covers MIC for 1 molecule.

≈ marks a conversion by molar mass, not a printed value.

For the molecule `CO[C@H]1/C=C/O[C@@]2(C)Oc3c(C)c(O)c4c(O)c(c(/C=N/N5CCN(C)CC5)c(O)c4c3C2=O)NC(=O)/C(C)=C\C=C\[C@H](C)[C@H](O)[C@@H](C)[C@@H](O)[C@@H](C)[C@H](OC(C)=O)[C@@H]1C` [RIFAMPIN], the MIC (as a rule, the lowest concentration found to suppress growth) turned out to be 64 µg/mL (≈ 77.8 µM).
